The target in assay [1] is GST fused to the C-terminal kinase domain of normal NIK1 (NSP-interacting kinase 1) (Arabidopsis thaliana) (UniProt Q9LFS4). The assay can be described thus: pull-down; GST-KDNIK1, GST-T474D or GST previously linked to glutathione-Sepharose beads and incubated with bacterially produced His-NSP; retained proteins analysed by Coomassie-stained SDS-PAGE.
Assay [2] deals with GST fused to the NIK1 kinase domain with Thr-474 replaced by aspartate (Arabidopsis thaliana) (UniProt Q9LFS4). Described as above.

Chains of the proteins cited; added tags and fusions are not shown. Lines headed by an entry give the natural chain unless they say otherwise; changes in a name come on top. A line that says so, or that is headed by a name, gives the form on record, which may keep a tag or linker. Residues count along the entry.
GST fused to the C-terminal kinase domain of normal NIK1 (NSP-interacting kinase 1) (Q9LFS4, residues 297-638): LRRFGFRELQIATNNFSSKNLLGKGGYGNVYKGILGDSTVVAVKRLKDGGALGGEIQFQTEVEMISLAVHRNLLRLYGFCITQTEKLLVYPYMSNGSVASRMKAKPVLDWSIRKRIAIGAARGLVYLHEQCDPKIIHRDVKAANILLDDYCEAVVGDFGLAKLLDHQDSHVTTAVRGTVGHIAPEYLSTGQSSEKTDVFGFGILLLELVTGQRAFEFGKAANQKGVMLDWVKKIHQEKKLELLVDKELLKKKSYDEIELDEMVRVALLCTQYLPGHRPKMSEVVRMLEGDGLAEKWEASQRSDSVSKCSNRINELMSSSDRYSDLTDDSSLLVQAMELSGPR
GST fused to the NIK1 kinase domain with Thr-474 replaced by aspartate (Q9LFS4, form named): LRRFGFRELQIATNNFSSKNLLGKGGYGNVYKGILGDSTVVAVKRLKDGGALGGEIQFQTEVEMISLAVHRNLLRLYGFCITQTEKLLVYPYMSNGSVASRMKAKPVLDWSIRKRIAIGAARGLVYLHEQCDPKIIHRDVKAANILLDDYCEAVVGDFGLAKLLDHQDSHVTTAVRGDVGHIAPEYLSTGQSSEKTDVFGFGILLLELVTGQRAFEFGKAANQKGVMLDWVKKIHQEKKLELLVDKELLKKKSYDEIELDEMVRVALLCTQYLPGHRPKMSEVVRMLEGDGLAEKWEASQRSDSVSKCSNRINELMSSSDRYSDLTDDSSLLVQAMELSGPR

In article PMC2686266 one finds binding data, which are given here for one molecule.

Results are given in words; binding and its absence hold for the method and conditions named. Binding seen in cells or lysates may run through a third protein. Some results given as binding are weak or reduced against the parent protein; the word gives no strength. Where a sequence is shown, tags or fusion partners need not be part of it.

B1: His-tagged nuclear shuttle protein (NSP) of Cabbage leaf curl virus (CaLCuV) (protein, UniProt Q96706 1-256)
chain: MYPTKFRRGVSYSQRRFVSRNQSSKRGTFVRRTDGKRRKGPSSKAHDEPKMKLQRIHENQYGPEFVMTHNSALSTFINFPVLGKIEPNRSRSYIKLNRLSFKGTVKIERVHADVNMDGVISKIEGVFSLVIVVDRKPHLSSTGGLHTFDEIFGARIHSHGNLAITPGLKDRYYVLHVLKRVLSVEKDTLMVDLEGSTTISNRRYNCWASFNDLEHDLCNGVYANISKNAILVYYCWMSDAMSKASTFVSYDLDYLG
Regarding B1, the binding entry in assay [1] and in assay [2] was “binds” throughout.
